Results as given in article PMC6818353.
Results are given in words; binding and its absence hold for the method and conditions named. Binding seen in cells or lysates may run through a third protein. Some binding calls cover weakened binding; strength is not graded here. Where a sequence is shown, tags or fusion partners need not be part of it.

Molecular target: T1, V5-His6-tagged RIOK3 expressed in HEK293T cells (human) (UniProt O14730)
T1 sequence: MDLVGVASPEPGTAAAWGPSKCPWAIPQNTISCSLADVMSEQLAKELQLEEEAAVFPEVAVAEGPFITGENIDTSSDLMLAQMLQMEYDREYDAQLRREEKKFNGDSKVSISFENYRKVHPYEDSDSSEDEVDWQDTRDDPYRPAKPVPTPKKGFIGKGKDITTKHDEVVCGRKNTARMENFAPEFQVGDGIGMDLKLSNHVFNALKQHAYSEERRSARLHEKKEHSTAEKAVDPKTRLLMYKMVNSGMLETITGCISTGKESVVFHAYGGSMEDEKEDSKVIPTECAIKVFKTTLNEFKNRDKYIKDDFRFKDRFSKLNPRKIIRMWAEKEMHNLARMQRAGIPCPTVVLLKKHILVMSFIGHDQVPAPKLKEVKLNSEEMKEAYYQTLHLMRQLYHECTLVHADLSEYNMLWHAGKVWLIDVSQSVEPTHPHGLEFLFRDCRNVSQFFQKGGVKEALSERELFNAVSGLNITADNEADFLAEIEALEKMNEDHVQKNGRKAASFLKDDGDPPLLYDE
Assay: co-IP; V5-His6-RIOK3 co-transfected in HEK293T with HA-tagged wt, K63- or K48-specific ubiquitin; lysate immunoprecipitated with anti-V5 or mouse IgG control; immunoblot with anti-HA

| binding | Substance |
| --- | --- |
| no binding | HA-Ub-K48 (K48-linked Ub chains) (from UniProt P0CG48 1-76) |
| binds | HA-Ub-K63 (K63-linked Ub chains) (from UniProt P0CG48 1-76) |
